Laboratory results: PubChem BioAssay AID686938 (Drosophila RNAi Screening Center, 2013)
The screen tested about 23,000 reagents; shown is an unselected part of those with a known target gene and a result. In the full data, 75 (0.33%) are marked active. 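Raw plate signals without normalisation; calls rest on plate z-scores that were not deposited; ratio present for only 364 wells.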 The numbers tell different reagents against one gene apart. Names joined by + are all predicted targets of the reagent. No sequences are given here. Not given: the dose of the treatment.

Screen: 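Looking for CRAC channel components and the factors controlling them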 (primary screen)
Cell system: Drosophila S2R+ cells
Knock-down reagent: long dsRNA against Drosophila genes, about 0.25 µg dsRNA per well, roughly 10,000 cells
Time to read-out: 5 days of knock-down before the calcium assay
Treatment: thapsigargin (SERCA pump blocker) to empty calcium stores; entry signal taken 4 min after adding it
Read-out: 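Duplicate raw fluo-4 intensities per well from a plate reader, at rest and four minutes after thapsigargin emptied calcium stores; entry-to-rest ratio filled for only some wells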
Reading the numbers: calcium entry signal: higher = stronger calcium signal after store depletion; entry to resting ratio: higher = more calcium entry relative to resting level; resting calcium signal: higher = higher resting calcium signal
Call rule: 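Hit if the duplicate-averaged plate z-score for entry over resting signal is under −3; wells with weak total dye signal (Fmax z < −2) or more than 5 off-targets removed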
Calls: active = strongly reduced calcium entry; inactive = no strong reduction

| gene | dsRNA no. | calcium entry signal, replicate 1 (fluorescence units) | calcium entry signal, replicate 2 (fluorescence units) | entry to resting ratio | resting calcium signal, replicate 1 (fluorescence units) | resting calcium signal, replicate 2 (fluorescence units) | Call |
| --- | --- | --- | --- | --- | --- | --- | --- |
| CG9297 | 1 | 2.00e7 | 2.50e7 | – | 9.63e6 | 1.15e7 | inactive |
| CG6873 | 1 | 1.30e7 | 2.98e7 | – | 8.02e6 | 1.50e7 | inactive |
| bwa | 1 | 2.13e7 | 4.60e7 | – | 1.08e7 | 1.75e7 | inactive |
| bwa | 2 | 3.55e7 | 3.28e7 | – | 1.51e7 | 1.44e7 | inactive |
| CG42241 (retired record) | 1 | 2.04e7 | 3.51e7 | – | 1.10e7 | 1.51e7 | inactive |
| CG12035 | 1 | 3.55e7 | 3.33e7 | – | 1.71e7 | 1.67e7 | inactive |
| CG9130 + CG9133 | 1 | 3.03e7 | 4.25e7 | – | 1.59e7 | 2.31e7 | inactive |
| CG9130 + CG9133 | 2 | 2.94e7 | 2.98e7 | – | 1.39e7 | 1.42e7 | inactive |
| CG9130 + CG9133 | 3 | 1.96e7 | 3.54e7 | – | 1.07e7 | 1.68e7 | inactive |
| obst-E | 1 | 4.30e7 | – | – | 2.02e7 | – | inactive |
| CG13893 | 1 | 3.62e7 | 3.96e7 | – | 1.88e7 | 1.78e7 | inactive |
| CG32719 | 1 | 2.79e7 | 3.78e7 | – | 1.19e7 | 1.64e7 | inactive |
| Tasp1 | 1 | 4.29e7 | 4.69e7 | – | 2.00e7 | 3.24e7 | inactive |
| CG34425 | 1 | 3.10e7 | 6.05e7 | – | 1.51e7 | 2.49e7 | inactive |
| CG34425 | 2 | 4.01e7 | 5.67e7 | – | 1.87e7 | 2.45e7 | inactive |
| CG4984 + CG4975 | 1 | 3.62e7 | 4.46e7 | – | 1.74e7 | 2.23e7 | inactive |
| CG4984 + CG4975 | 2 | 3.17e7 | 2.48e7 | – | 1.45e7 | 1.34e7 | inactive |
| CG13562 | 1 | 4.10e7 | 4.12e7 | – | 2.11e7 | 1.85e7 | inactive |
| Ir56c | 1 | 4.92e7 | 4.99e7 | – | 1.93e7 | 2.40e7 | inactive |
| bsh | 1 | 6.51e7 | 3.29e7 | – | 2.90e7 | 1.63e7 | inactive |
| Mnat9 | 1 | 3.84e7 | 4.27e7 | 2.1 | 1.82e7 | 1.96e7 | inactive |
| Wee1 | 1 | 3.78e7 | 3.19e7 | – | 1.77e7 | 1.59e7 | inactive |
| Wee1 | 2 | 3.71e7 | 4.00e7 | – | 1.75e7 | 1.76e7 | inactive |
| RpL39 | 1 | 1.50e7 | 1.42e7 | – | 1.04e7 | 9.60e6 | inactive |

Individual results from above:
Result for CG9130 + CG9133 #2 under “resting calcium signal, replicate 2 (fluorescence units)”: 1.42e7
Result for Wee1 #2 under “calcium entry signal, replicate 1 (fluorescence units)”: 3.71e7
